Patent US11541032B2, “Composition containing sumo inhibitor and application” (CHINA PHARMACEUTICAL UNIVERSITY, priority 2018, dated 2023)
For at least one compound, name, drawing or mass did not settle the structure.

Columns and labels:
[1] = system: activated HSCs (HSC-T6 cells); test: RT-PCR of fibrotic-related gene Acta2 mRNA in activated HSCs; assay type: cell-based, Rat
Procedure: (§1) HSC-T6 cells, seeded and cultured in a proper density, were treated with TGF-β([…]) or OCA (5 μM) or GW40064 (5 μM) or WAY-362450 (5 μM) for 12 h before collection.
(§2) RNA solutions and kit components were prepared into a system with a total volume of 20 μl according to a system proportion required in the specification, and a program temperature was set for reverse transcription.
(§3) Stage 2: PCR reaction at 95° C. for 15 sec; for example, at 60° C. for 30 sec for 40 Cycles; and at 72° C. for 30 sec.
(§4) Specific methods were the same as those in section 2.1 in Embodiment 1.
(§5) Specific methods were the same as those in section 2.2 in Embodiment 1.

[2] = system: CCl4-induced liver fibrosis; test: CCl4-induced liver fibrosis in mice (liver RT-PCR, Sirius red staining); assay type: in vivo, mice (C57BL/6)
[3] = system: liver fibrosis of NASH patients; conditions: 25 mg daily OCA, placebo 10.6%; cited from earlier work
[4] = system: liver fibrosis index of PBC patients; conditions: compared with a placebo; cited from earlier work
FXR signaling pathway = test: RT-PCR of FXR target gene Shp mRNA in quiescent and TGF-β-activated HSC-T6 cells; assay type: cell-based, Rat
Procedure: as §1
1) After the cells were cleaned by PBS, 800 μl of a Trizol reagent was added. After repeated blowing by a pipette, the cells were transferred into an EP tube to be subjected to still standing for 5 min at the room temperature.
2) 160 μl of chloroform was added, and violent oscillation was performed for 15 sec. After still standing for 5 min at the room temperature, 12000 g centrifugation was performed for 15 min. The sample was divided into three layers including a bottom layer being a yellow organic phase, an upper layer being a colorless water phase, and a middle layer.
3) 300 μl of the upper layer water phase was carefully transferred into a new tube. 300 μl of isopropanol was added. After uniform mixing through reversing, still standing was performed for 10 min at the room temperature. Then, 12000 g centrifugation was performed for 10 min. Supernatant was abandoned.
4) RNA precipitates were washed by 1.0 ml of precooled 75% ethanol. Then, 12000 g centrifugation was performed for 5 min. Supernatant was abandoned to obtain total RNA. Redissolution was performed by 10 μl of DEPC water. After quantification, dilution was performed to 0.5 μg/μl.
as §2
Stage 1: reverse transcription at 37° C. for 15 min.
Stage 2: denaturation at 85° C. for 5 s.
Stage 1: initial denaturation at 95° C. for 1 min.
as §3
Stage 3: dissociation curve analysis at 65 to 95° C., 0.5° C./5s.
as §4, §5

With `CC[C@H]1[C@@H](O)[C@@H]2[C@H](CC[C@]3(C)[C@@H]([C@H](C)CCC(=O)O)CC[C@@H]23)[C@@]2(C)CC[C@@H](O)C[C@@H]12` [OCA, obeticholic acid] the “expression of Acta2” value ([1]; after administration of GA) was “could significantly inhibit”, the “expression of fibrotic-related gene Acta2” value ([1]; after administration of SP) was “significantly reduced” and the “Sirius red staining, red collagen fibers in the liver” value ([2]; CCl4 fibrotic mice) was “contained a great number of red collagen fibers”. For the same compound, the “mRNA level of the FXR downstream gene in liver tissues” value ([2]; fibrotic mice, OCA 1.5 mg/kg once a day, combined use with SP 200 mg/kg/day) was “significantly increased”, the “patients whose fibrosis symptoms had been relieved (improvement rate)” value [3] was 21.0% and the “improvement effect on the liver fibrosis index” value [4] was “did not have a significant improvement effect”. For the same compound, the “mRNA expression of Shp” value (FXR signaling pathway; activated HSCs, in the presence of SUMO inhibitor SP) was “significantly up-regulated”, the “mRNA level of Shp” value (FXR signaling pathway; activated state (TGF-β1 incubation) HSC-T6 cells, agonist 5 μM, 12 h) was “none of the FXR agonists OCA, GW4064 and WAY-362450 could significantly up-regulate” and the “mRNA level of Shp, an FXR target gene” value (FXR signaling pathway; quiescent HSC-T6 cells, agonist 5 μM, 12 h) was “could significantly up-regulate”.
